Reference: PubChem BioAssay AID2685 (National Center for Advancing Translational Sciences (NCATS), 2010)
Some of the results follow. These are further read-outs of the screen, such as a control signal, another cell line or another target. No call is given for them. Most of these compounds were active or inconclusive in the main read-out, so they are no random draw. Words in brackets tell the shape of the fitted curve; partial curves, single points and poor fits give uncertain potencies.

Test: qHTS Assay for Lipid Storage Modulators in Drosophila S3 Cells;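 as to cell number change: cells counted by Cell Tracker Red CMTPX staining in the red channel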
Settings: BODIPY lipid droplet fluorescence, 18-24 h; for cell number change: measured here: cell count max response, cells fed with added oleic acid
Method in brief: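 Drosophila S3 cells loaded with oleic acid (400 uM, as added) and compounds at several concentrations; lipid droplets imaged by 488-nm laser-scanning cytometry, 500–530 nm intensity and object ratio to cell channel. Percent activity normalized to 20 uM Triacsin C.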

[1] = measured here: cell number channel AC50, cells fed with added oleic acid
[2] = measured here: lipid fluorescence (Fed channel) AC50, cells fed with added oleic acid

Row | SMILES | cell number change [%] | AC50 [1] | AC50 [2]
1 | COCC(=O)Nc1nc2n(n1)C(c1ccc(Cl)cc1)CC(c1ccc(OC)cc1)N2 (stereo not given) | 36.9 | 16.4 µM [rising, partial curve, poor fit] | 
2 | Cc1ccc(C(=O)COC(=O)CCCC(=O)Nc2cc(C(F)(F)F)ccc2Cl)cc1C | -37.5 | 29.1 µM [falling, single point] | 0.103 µM [falling, full curve, poor fit]
3 | Cc1ccc2c(c1)/C(=N/N1C(=O)c3ccccc3C1=O)C(=O)N2 | -1.13 |  | 0.259 µM [falling, full curve, poor fit]
4 | CCOC(=O)N1CCN(C(=O)C(CC(C)C)NS(=O)(=O)c2ccc3c(c2)oc(=O)n3C)CC1 (stereo not given) | 94.9 |  | 29.1 µM [rising, single point]
5 | CCn1cc(CNC(=O)c2ccc3nc(Cc4ccccc4F)oc3c2)cn1 | -13.8 |  | 1.46 µM [rising, partial curve]
6 | CCCC1=C(C(=O)OCC)C(c2cccs2)n2ncnc2N1 (stereo not given) | -18.6 | 0.00411 µM [falling, full curve, poor fit] | 
7 | CCC1CCCCN1C(=O)CSc1nnc(-c2ccc(Cl)cc2)o1 (stereo not given) | -6.35 |  | 
8 | CN(C)S(=O)(=O)c1ccc(Cl)c(NC(=O)COC(=O)/C=C/c2ccco2)c1 | -61.3 |  | 
9 | COc1cc(C(=O)OCCCOC(=O)c2cc(OC)c(OC)c(OC)c2)cc(OC)c1OC | 5.24 | 3.55 µM [falling, single point] | 2.24 µM [falling, partial curve]
10 | O=C(Nc1ccncc1)Nc1cc(Cl)ccc1Cl |  |  | 6.51 µM [rising, single point]
11 | COc1ccc(-c2noc(C(=O)NCc3ccc(F)cc3)n2)cc1OC | 36.3 | 9.2 µM [rising, single point] | 
12 | Cc1ccc(NC(=O)CN2CCC(NC(=O)c3ccccc3F)CC2)cc1C | 27.4 |  | 14.6 µM [rising, partial curve]
13 | Cc1csc(=Nc2ccc(S(=O)(=O)N3CCOCC3)cc2)n1Cc1ccco1 | -17.2 |  | 
14 | COCCNC(=O)Cn1nc(C(F)(F)F)c(Br)c1C | -65.9 | 18.4 µM [falling, single point] | 
15 | CCCNCc1cc(OC)c(OCC(=O)NCCc2ccccc2)cc1Br | 31.8 | 2.06 µM [rising, full curve, poor fit] | 16.4 µM [rising, partial curve]
16 | Fc1cnc(N2CCc3ccccc32)nc1N1CCc2ccccc21 | 12.8 |  | 
17 | CC(=O)NCCn1c(C)cc2ccccc21 | -68.6 | 11.6 µM [falling, partial curve] | 
18 | CCN(CC)S(=O)(=O)c1ccc(NC2c3ccccc3C(=O)N2c2ccc(C)cn2)cc1 (stereo not given) | 9.16 | 0.164 µM [rising, full curve, poor fit] | 
19 | COCCCNC(=O)Cn1ccc(N)nc1=O | -6.62 |  | 29.1 µM [rising, single point]
20 | COCC(C)n1c(SCC(=O)Nc2ccc3c(c2)OCCO3)nc2ccccc2c1=O (stereo not given) | 1.09 |  | 13 µM [falling, partial curve]

Among those listed so far, these contain nitrogen in an aromatic ring:
Row | SMILES | cell number change [%] | AC50 [1] | AC50 [2]
1 | COCC(=O)Nc1nc2n(n1)C(c1ccc(Cl)cc1)CC(c1ccc(OC)cc1)N2 (stereo not given) | 36.9 | 16.4 µM [rising, partial curve, poor fit] | 
4 | CCOC(=O)N1CCN(C(=O)C(CC(C)C)NS(=O)(=O)c2ccc3c(c2)oc(=O)n3C)CC1 (stereo not given) | 94.9 |  | 29.1 µM [rising, single point]
5 | CCn1cc(CNC(=O)c2ccc3nc(Cc4ccccc4F)oc3c2)cn1 | -13.8 |  | 1.46 µM [rising, partial curve]
6 | CCCC1=C(C(=O)OCC)C(c2cccs2)n2ncnc2N1 (stereo not given) | -18.6 | 0.00411 µM [falling, full curve, poor fit] | 
7 | CCC1CCCCN1C(=O)CSc1nnc(-c2ccc(Cl)cc2)o1 (stereo not given) | -6.35 |  | 
10 | O=C(Nc1ccncc1)Nc1cc(Cl)ccc1Cl |  |  | 6.51 µM [rising, single point]
11 | COc1ccc(-c2noc(C(=O)NCc3ccc(F)cc3)n2)cc1OC | 36.3 | 9.2 µM [rising, single point] | 
13 | Cc1csc(=Nc2ccc(S(=O)(=O)N3CCOCC3)cc2)n1Cc1ccco1 | -17.2 |  | 
14 | COCCNC(=O)Cn1nc(C(F)(F)F)c(Br)c1C | -65.9 | 18.4 µM [falling, single point] | 
16 | Fc1cnc(N2CCc3ccccc32)nc1N1CCc2ccccc21 | 12.8 |  | 
17 | CC(=O)NCCn1c(C)cc2ccccc21 | -68.6 | 11.6 µM [falling, partial curve] | 
18 | CCN(CC)S(=O)(=O)c1ccc(NC2c3ccccc3C(=O)N2c2ccc(C)cn2)cc1 (stereo not given) | 9.16 | 0.164 µM [rising, full curve, poor fit] | 
19 | COCCCNC(=O)Cn1ccc(N)nc1=O | -6.62 |  | 29.1 µM [rising, single point]
20 | COCC(C)n1c(SCC(=O)Nc2ccc3c(c2)OCCO3)nc2ccccc2c1=O (stereo not given) | 1.09 |  | 13 µM [falling, partial curve]

Following part:

Row | SMILES | cell number change [%] | AC50 [1] | AC50 [2]
21 | COc1ccc(S(=O)(=O)N2CCN(C)CC2)cc1C(=O)N1CCCCC1 | 28 | 1.3 µM [rising, full curve, poor fit] | 5.17 µM [rising, single point]
22 | CCn1c2ccccc2c2nnc(SCC(=O)NCCOC)nc21 | -4.36 |  | 1.16 µM [rising, full curve, poor fit]
23 | C=CCOn1c(=O)c(=O)n(OCc2ccccc2)c2ccccc21 | -3.07 |  | 
24 | Cc1ccnc(NS(=O)(=O)c2ccccc2)c1 | 8.01 |  | 0.58 µM [rising, single point]
25 | CC(C)(C)C(=O)Nc1ccc(N2CCCC2)cc1 | -7.03 |  | 6.51 µM [falling, single point]
26 | CCOc1cc(-c2cn(S(=O)(=O)c3cccc4nsnc34)nc2N)cc(OCC)c1OCC |  | 2.91 µM [rising, partial curve] | 4.61 µM [rising, partial curve]
27 | COC(=O)c1sc(NC(=O)c2ccc(Cn3cc(Cl)cn3)o2)c(C#N)c1C | -17.8 |  | 
28 | CCCC1(C(=O)O)NC(c2ccccc2O)C2C(=O)N(c3cccc(Cl)c3)C(=O)C21 (stereo not given) | 19.9 |  | 29.1 µM [rising, single point]
29 | Cc1ccc(NCc2nnc(SCC(=O)c3ccc4c(c3)OCCO4)o2)c(C)c1 | -40 | 3.66 µM [falling, partial curve] | 
30 | C/C(=N\NC(=O)c1cc(-c2cccnc2)nc2ccccc12)c1ccccc1O | -15.8 |  | 29.1 µM [falling, single point]
31 | COc1ccc(Cl)cc1NC(=O)c1[nH]c(C)c(C(C)=O)c1C | 6.67 |  | 6.51 µM [falling, single point]
32 | COCC(C)N=C1NN=C(c2c[nH]c3ccccc23)CS1 (stereo not given) | 23.8 |  | 6.51 µM [falling, single point]
33 | C#CCOCCOCCOCCNc1nc(N2CCN(C(=O)Cn3cc(CCCCN)nn3)CC2)nc(N2CCN(C(=O)Cn3cc(CCCN=C(N)N)nn3)CC2)n1 | 24.8 | 0.58 µM [rising, full curve, poor fit] | 
34 | O=C(Nc1ccc(Cl)cc1)N1CCOC12CCCCC2 |  |  | 0.146 µM [falling, full curve, poor fit]
35 | O=C(CN(c1cccc(Cl)c1)S(=O)(=O)c1ccc(Cl)cc1)NCc1ccccn1 | -15.2 |  | 
36 | CC(C)CN(CCC(=O)O)CC(C)C | -34.8 | 0.0291 µM [falling, full curve] | 0.0517 µM [falling, full curve]
37 | O=C(C1CCCN(S(=O)(=O)c2cccc3nsnc23)C1)N1CCc2ccccc2C1 (stereo not given) | -0.778 |  | 
38 | CC(NC(=O)CN(C)CC(=O)Nc1cccc(F)c1)c1ccccc1 (stereo not given) | -8.77 |  | 29.1 µM [falling, single point]
39 | COc1cccc(N2CCN(C3OC(=O)c4ccccc43)CC2)c1 (stereo not given) | 13.3 |  | 
40 | CCN(CC)S(=O)(=O)c1cccc(C(=O)Oc2cccc(NC(=O)c3cccs3)c2)c1 | 85.4 | 3.66 µM [rising, full curve] | 4.61 µM [rising, full curve]

Row | SMILES | cell number change [%] | AC50 [1] | AC50 [2]
41 | Cc1ccc(C)c(NC(=S)NCCCN2CCOCC2)c1 | -5.81 | 0.103 µM [falling, full curve, poor fit] | 6.51 µM [falling, single point]
42 | O=C(c1ccccc1Oc1ccc([N+](=O)[O-])cc1)N1CCOCC1 | -7.91 |  | 
43 | COc1cc(C(=O)NCC(=O)N/N=C/c2ccc(OC(=O)c3ccco3)cc2)cc(OC)c1OC | -33.4 |  | 0.82 µM [falling, full curve, poor fit]
44 | COc1ccc(COC(=O)c2cccc(S(=O)(=O)N3CCN(C(C)=O)CC3)c2)cc1F | 0.694 | 6.51 µM [falling, single point] | 6.51 µM [falling, single point]
45 | COc1ccc(OC)c(-n2c(SCC(=O)NCc3ccco3)nnc2-c2c[nH]c3ccccc23)c1 | -31.1 | 0.411 µM [falling, full curve, poor fit] | 1.03 µM [falling, partial curve]
46 | CCCCn1c(N)c(N(CC(C)C)C(=O)C2CCN(S(=O)(=O)c3ccc(F)cc3)CC2)c(=O)[nH]c1=O | -0.567 |  | 29.1 µM [rising, single point]
47 | O=C(NC1CCCCC1)C1CC(=O)N(c2ccccc2)C1 (stereo not given) | -20.5 |  | 6.51 µM [rising, single point]
48 | O=C(Cc1cccs1)Nc1ccc(S(=O)(=O)N2CCCCC2)cc1 | -143 | 29.1 µM [falling, single point] | 
49 | CCN(CC)c1ccc(NC(=O)c2ccc3c(c2)OCO3)c(C)c1 | 7.73 |  | 0.116 µM [rising, full curve, poor fit]
50 | O=C(Nc1ccccc1Cl)C1CCN(Cc2cnn(-c3ccccc3)c2-n2cccc2)CC1 | 37.1 | 32.6 µM [rising, single point] | 
51 | Nc1c(C(=O)NCc2ccc3c(c2)OCO3)nnn1CC(=O)Nc1ccc(Br)cc1 | 7.58 |  | 4.61 µM [falling, single point]
52 | COc1ccc2c(c1)CC/C(=C/c1ccco1)C2=O | 11.6 | 1.64 µM [falling, partial curve, poor fit] | 29.1 µM [rising, single point]
53 | Cc1ccc(C)c(NS(=O)(=O)c2c(C)ccc3nsnc23)c1 | -7.86 |  | 0.206 µM [rising, partial curve]
54 | CC(OC(=O)CC(NC(=O)c1ccccc1Cl)c1ccccc1)C(=O)Nc1cccc(Cl)c1Cl (stereo not given) | 17.1 | 4.11 µM [rising, partial curve] | 0.461 µM [rising, full curve, poor fit]
55 | COc1cccc(-c2nnc(NC(=O)c3ccc(Cl)s3)o2)c1 | -16 |  | 18.4 µM [falling, single point]
56 | C/C=C/c1ccc(OCCCN2C(=O)NC(C)(C)C2=O)c(OC)c1 | -2.37 |  | 6.51 µM [rising, single point]
57 | O=C(/C=C\c1ccccc1OC(=O)c1ccccc1F)c1cc2ccccc2o1 | -40.3 | 5.8 µM [falling, partial curve] | 2.91 µM [falling, full curve]
58 | CC(C)(C)OC(=O)NOCC(=O)N(Cc1ccccc1)CC(O)COc1ccccc1 (stereo not given) |  |  | 5.8 µM [falling, partial curve]

A draw from above in order of length of the SMILES, high to low:
Row | SMILES | cell number change [%] | AC50 [1] | AC50 [2]
21 | COc1ccc(S(=O)(=O)N2CCN(C)CC2)cc1C(=O)N1CCCCC1 | 28 | 1.3 µM [rising, full curve, poor fit] | 5.17 µM [rising, single point]
49 | CCN(CC)c1ccc(NC(=O)c2ccc3c(c2)OCO3)c(C)c1 | 7.73 |  | 0.116 µM [rising, full curve, poor fit]
53 | Cc1ccc(C)c(NS(=O)(=O)c2c(C)ccc3nsnc23)c1 | -7.86 |  | 0.206 µM [rising, partial curve]
